In publication doi:10.1101/2024.04.16.589460:
No constants are given. Whether binding was seen depends on the method and setting. In cells and extracts the contact can be indirect. Some entries that bind do so weakly or less than the wild type.

Sequences of proteins named here, by UniProt entry; tags and fusion partners are left off.
UniProt P46937: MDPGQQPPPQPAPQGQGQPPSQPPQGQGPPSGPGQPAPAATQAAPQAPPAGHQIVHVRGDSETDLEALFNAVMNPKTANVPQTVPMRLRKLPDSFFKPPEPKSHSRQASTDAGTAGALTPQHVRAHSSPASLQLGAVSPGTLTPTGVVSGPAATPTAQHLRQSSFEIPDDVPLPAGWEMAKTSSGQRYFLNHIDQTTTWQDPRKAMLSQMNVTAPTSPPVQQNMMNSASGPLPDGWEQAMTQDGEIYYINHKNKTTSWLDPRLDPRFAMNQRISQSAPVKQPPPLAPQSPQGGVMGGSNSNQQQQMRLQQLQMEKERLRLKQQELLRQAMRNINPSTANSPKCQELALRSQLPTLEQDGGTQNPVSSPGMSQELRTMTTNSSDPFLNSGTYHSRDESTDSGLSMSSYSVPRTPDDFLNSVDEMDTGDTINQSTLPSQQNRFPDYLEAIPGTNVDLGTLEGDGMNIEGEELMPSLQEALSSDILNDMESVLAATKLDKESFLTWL

T1: SAM pointed domain-containing ETS transcriptional factor (SPDEF) (human (endogenous in SKBR3)) (UniProt O95238)
T1 sequence: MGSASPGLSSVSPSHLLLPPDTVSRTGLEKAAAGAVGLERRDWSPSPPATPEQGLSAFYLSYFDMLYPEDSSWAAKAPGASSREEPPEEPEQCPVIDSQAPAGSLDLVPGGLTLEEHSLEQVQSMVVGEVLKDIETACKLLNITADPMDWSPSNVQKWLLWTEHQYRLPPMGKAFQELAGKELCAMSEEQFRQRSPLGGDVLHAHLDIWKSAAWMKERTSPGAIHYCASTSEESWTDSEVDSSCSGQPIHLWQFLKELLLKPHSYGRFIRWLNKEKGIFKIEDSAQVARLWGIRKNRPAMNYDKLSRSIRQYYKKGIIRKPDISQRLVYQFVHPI


Legend:
[1] = target: T1, SAM pointed domain-containing ETS transcriptional factor (SPDEF) (human (endogenous in SKBR3)); assay: proximity ligation
[2] = target: YAP (human (endogenous in SKBR3)) (UniProt P46937); assay: proximity ligation

Binder | binding [1] | binding [2]
Forkhead box protein A1 (FOXA1) (protein, UniProt P55317 1-472) MLGTVKMEGHETSDWNSYYADTQEAYSSVPVSNMNSGLGSMNSMNTYMTMNTMTTSGNMTPASFNMSYANPGLGAGLSPGAVAGMPGGSAGAMNSMTAAGVTAMGTALSPSGMGAMGAQQAASMNGLGPYAAAMNPCMSPMAYAPSNLGRSRAGGGGDAKTFKRSYPHAKPPYSYISLITMAIQQAPSKMLTLSEIYQWIMDLFPYYRQNQQRWQNSIRHSLSFNDCFVKVARSPDKPGKGSYWTLHPDSGNMFENGCYLRRQKRFKCEKQPGAGGGGGSGSGGSGAKGGPESRKDPSGASNPSADSPLHRGVHGKTGQLEGAPAPGPAASPQTLDHSGATATGGASELKTPASSTAPPISSGPGALASVPASHPAHGLAPHESQLHLKGDPHYSFNHPFSINNLMSSSEQQHKLDFKAYEQALQYSPYGSTLPASLPLGSASVTTRSPIEPSALEPAYYQGVYSRPVLNTS | binds | 
TRPS1 (protein, UniProt Q9UHF7 1-1281) MVRKKNPPLRNVASEGEGQILEPIGTESKVSGKNKEFSADQMSENTDQSDAAELNHKEEHSLHVQDPSSSSKKDLKSAVLSEKAGFNYESPSKGGNFPSFPHDEVTDRNMLAFSSPAAGGVCEPLKSPQRAEADDPQDMACTPSGDSLETKEDQKMSPKATEETGQAQSGQANCQGLSPVSVASKNPQVPSDGGVRLNKSKTDLLVNDNPDPAPLSPELQDFKCNICGYGYYGNDPTDLIKHFRKYHLGLHNRTRQDAELDSKILALHNMVQFSHSKDFQKVNRSVFSGVLQDINSSRPVLLNGTYDVQVTSGGTFIGIGRKTPDCQGNTKYFRCKFCNFTYMGNSSTELEQHFLQTHPNKIKASLPSSEVAKPSEKNSNKSIPALQSSDSGDLGKWQDKITVKAGDDTPVGYSVPIKPLDSSRQNGTEATSYYWCKFCSFSCESSSSLKLLEHYGKQHGAVQSGGLNPELNDKLSRGSVINQNDLAKSSEGETMTKTDKSSSGAKKKDFSSKGAEDNMVTSYNCQFCDFRYSKSHGPDVIVVGPLLRHYQQLHNIHKCTIKHCPFCPRGLCSPEKHLGEITYPFACRKSNCSHCALLLLHLSPGAAGSSRVKHQCHQCSFTTPDVDVLLFHYESVHESQASDVKQEANHLQGSDGQQSVKESKEHSCTKCDFITQVEEEISRHYRRAHSCYKCRQCSFTAADTQSLLEHFNTVHCQEQDITTANGEEDGHAISTIKEEPKIDFRVYNLLTPDSKMGEPVSESVVKREKLEEKDGLKEKVWTESSSDDLRNVTWRGADILRGSPSYTQASLGLLTPVSGTQEQTKTLRDSPNVEAAHLARPIYGLAVETKGFLQGAPAGGEKSGALPQQYPASGENKSKDESQSLLRRRRGSGVFCANCLTTKTSLWRKNANGGYVCNACGLYQKLHSTPRPLNIIKQNNGEQIIRRRTRKRLNPEALQAEQLNKQQRGSNEEQVNGSPLERRSEDHLTESHQREIPLPSLSKYEAQGSLTKSHSAQQPVLVSQTLDIHKRMQPLHIQIKSPQESTGDPGNSSSVSEGKGSSERGSPIEKYMRPAKHPNYSPPGSPIEKYQYPLFGLPFVHNDFQSEADWLRFWSKYKLSVPGNPHYLSHVPGLPNPCQNYVPYPTFNLPPHFSAVGSDNDIPLDLAIKHSRPGPTANGASKEKTKAPPNVKNEGPLNVVKTEKVDRSTQDELSTKCVHCGIVFLDEVMYALHMSCHGDSGPFQCSICQHLCTDKYDFTTHIQRGLHRNNAQVEKNGKPKE |  | binds
